{"source": "the supplement of paper PMC4635364", "key": {"ReNCell VM [1]": {"test_system": "ReNCell VM", "assay": "neuronal differentiation score (DCX+ cell fraction vs untreated, manual image score) (score (-3 to 3)); higher = more neuronal differentiation", "details": "2 uM, 2 weeks"}, "ReNCell VM [2]": {"test_system": "ReNCell VM", "assay": "dopaminergic neuron differentiation score (TH+ cell fraction vs untreated, manual image score) (score (0 to 3)); higher = more TH+ dopaminergic neuron differentiation", "details": "2 uM, 4 weeks, BDNF 10 ng/ml + GDNF 10 ng/ml"}}, "note": "Where a name gives a salt, the structure may show the parent alone. This is one part of the list. This data set is noisy: repeats of one test often differ as much as different tests do.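 Cells: ReNCell VM human fetal ventral-midbrain neural progenitors, differentiated mitogen-free. Blinded raters compared doublecortin-stained (early neurons) or tyrosine hydroxylase-stained (dopaminergic neurons) images with untreated wells, where 0 means no change. After repeats and both raters were averaged, compounds scoring 2 or above became hits for retesting.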"}
{"smiles": "CC(=O)Nc1ncc([N+](=O)[O-])s1", "values": [{"measurement": "neuronal differentiation score", "setting": "ReNCell VM [1]; library: Spectrum", "value": "inactive: 0"}, {"measurement": "dopaminergic neuron differentiation score", "setting": "ReNCell VM [2]; library: Spectrum", "value": "inactive: 0"}]}
{"smiles": "CCN(CC)C(=O)c1ccc(O)c(OC)c1", "note": "[Ethamivan]", "values": [{"measurement": "neuronal differentiation score", "setting": "ReNCell VM [1]; library: Prestwick", "value": "inactive: 0"}, {"measurement": "dopaminergic neuron differentiation score", "setting": "ReNCell VM [2]; library: Prestwick", "value": "inactive: 0"}]}
{"smiles": "Nn1nnc2ccccc21", "note": "[1-Aminobenzotriazole]", "values": [{"measurement": "neuronal differentiation score", "setting": "ReNCell VM [1]; library: LOPAC", "value": "inactive: 0"}, {"measurement": "dopaminergic neuron differentiation score", "setting": "ReNCell VM [2]; library: LOPAC", "value": "inactive: 0"}]}
{"smiles": "CC1(C)S[C@@H]2[C@H](NC(=O)[C@H](NC(=O)N3CCNC3=O)c3ccccc3)C(=O)N2[C@H]1C(=O)O", "note": "[Azlocillin sodium salt]", "values": [{"measurement": "neuronal differentiation score", "setting": "ReNCell VM [1]; library: Prestwick", "value": "inactive: 0"}, {"measurement": "dopaminergic neuron differentiation score", "setting": "ReNCell VM [2]; library: Prestwick", "value": "inactive: 0"}]}
{"smiles": "CO/N=C(\\C(=O)N[C@@H]1C(=O)N2C(C(=O)OCOC(=O)C(C)(C)C)=C(/C=C\\c3scnc3C)CS[C@H]12)c1csc(N)n1", "values": [{"measurement": "neuronal differentiation score", "setting": "ReNCell VM [1]; library: Spectrum", "value": "inactive: 0"}, {"measurement": "dopaminergic neuron differentiation score", "setting": "ReNCell VM [2]; library: Spectrum", "value": "inactive: 0"}]}
{"smiles": "Cc1c(C(N)=O)cc([N+](=O)[O-])cc1[N+](=O)[O-]", "values": [{"measurement": "neuronal differentiation score", "setting": "ReNCell VM [1]; library: Spectrum", "value": "inactive: 0"}, {"measurement": "dopaminergic neuron differentiation score", "setting": "ReNCell VM [2]; library: Spectrum", "value": "inactive: 0"}]}
{"smiles": "CCCC(=O)O[C@]1(C(=O)CO)CC[C@H]2[C@@H]3CCC4=CC(=O)CC[C@]4(C)[C@H]3[C@@H](O)C[C@@]21C", "values": [{"measurement": "neuronal differentiation score", "setting": "ReNCell VM [1]; library: Spectrum", "value": "inactive: 0"}, {"measurement": "dopaminergic neuron differentiation score", "setting": "ReNCell VM [2]; library: Spectrum", "value": "inactive: 0"}]}
{"smiles": "CCOC(=O)N1CCC(=C2c3ccc(Cl)cc3CCc3cccnc32)CC1", "values": [{"measurement": "neuronal differentiation score", "setting": "ReNCell VM [1]; library: Spectrum", "value": "inactive: 0"}, {"measurement": "dopaminergic neuron differentiation score", "setting": "ReNCell VM [2]; library: Spectrum", "value": "inactive: 0"}]}
{"smiles": "COc1cc2c(cc1OC)C(=O)Cc1ccc3c(c1CN(C)CC2)OCO3", "note": "[Cryptopine]", "values": [{"measurement": "neuronal differentiation score", "setting": "ReNCell VM [1]; library: Phytochemical", "value": "inactive: 0"}, {"measurement": "dopaminergic neuron differentiation score", "setting": "ReNCell VM [2]; library: Phytochemical", "value": "inactive: 0"}]}
{"smiles": "O=c1ccc2ccc(O[C@@H]3O[C@H](CO)[C@@H](O)[C@H](O)[C@H]3O)c(O)c2o1", "note": "[daphnin]", "values": [{"measurement": "neuronal differentiation score", "setting": "ReNCell VM [1]; library: Natural", "value": "inactive: 0"}, {"measurement": "dopaminergic neuron differentiation score", "setting": "ReNCell VM [2]; library: Natural", "value": "inactive: 0"}]}
{"smiles": "CN1C(C)(C)CCCC1(C)C", "values": [{"measurement": "neuronal differentiation score", "setting": "ReNCell VM [1]; library: Spectrum", "value": "inactive: 0"}, {"measurement": "dopaminergic neuron differentiation score", "setting": "ReNCell VM [2]; library: Spectrum", "value": "inactive: 0"}]}
